Source: publication PMC7486383, “Protrudin and PDZD8 contribute to neuronal integrity by promoting lipid extraction required for endosome maturation” (Nature Communications, 2020)
No constants are given. Whether binding was seen depends on the method and setting. Binding seen in cells or lysates may run through a third protein. These calls come from enrichment with a bait or labelling near it, and not all partners need be listed. For some of these results: Sequences can lack the tags named with a protein.

Protein sequences, listed by entry. Tags and fused reporters are not part of them.
UniProt Q9QY76: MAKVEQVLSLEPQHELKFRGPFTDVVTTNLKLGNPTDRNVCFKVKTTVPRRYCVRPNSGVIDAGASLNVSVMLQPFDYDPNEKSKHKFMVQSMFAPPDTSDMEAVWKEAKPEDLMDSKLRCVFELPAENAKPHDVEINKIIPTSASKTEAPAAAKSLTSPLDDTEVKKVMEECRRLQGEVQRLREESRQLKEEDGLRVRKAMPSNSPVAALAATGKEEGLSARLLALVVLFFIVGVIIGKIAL

T1: His6-FLAG-tagged mouse protrudin (mouse) (UniProt Q3TXX3)
T1 sequence: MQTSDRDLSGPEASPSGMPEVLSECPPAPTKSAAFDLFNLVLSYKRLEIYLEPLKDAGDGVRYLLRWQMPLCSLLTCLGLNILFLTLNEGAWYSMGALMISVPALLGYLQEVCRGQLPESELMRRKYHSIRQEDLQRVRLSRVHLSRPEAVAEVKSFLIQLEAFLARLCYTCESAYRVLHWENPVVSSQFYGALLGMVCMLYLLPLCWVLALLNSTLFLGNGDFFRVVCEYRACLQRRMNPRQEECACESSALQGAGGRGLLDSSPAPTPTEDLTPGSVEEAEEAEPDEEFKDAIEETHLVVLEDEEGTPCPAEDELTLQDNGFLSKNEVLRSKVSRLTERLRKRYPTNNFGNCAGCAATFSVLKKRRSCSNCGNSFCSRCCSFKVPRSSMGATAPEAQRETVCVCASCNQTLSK

T2: endogenous protrudin of mouse brain (mouse (endogenous in mouse brain)) (UniProt Q3TXX3)
T2 sequence: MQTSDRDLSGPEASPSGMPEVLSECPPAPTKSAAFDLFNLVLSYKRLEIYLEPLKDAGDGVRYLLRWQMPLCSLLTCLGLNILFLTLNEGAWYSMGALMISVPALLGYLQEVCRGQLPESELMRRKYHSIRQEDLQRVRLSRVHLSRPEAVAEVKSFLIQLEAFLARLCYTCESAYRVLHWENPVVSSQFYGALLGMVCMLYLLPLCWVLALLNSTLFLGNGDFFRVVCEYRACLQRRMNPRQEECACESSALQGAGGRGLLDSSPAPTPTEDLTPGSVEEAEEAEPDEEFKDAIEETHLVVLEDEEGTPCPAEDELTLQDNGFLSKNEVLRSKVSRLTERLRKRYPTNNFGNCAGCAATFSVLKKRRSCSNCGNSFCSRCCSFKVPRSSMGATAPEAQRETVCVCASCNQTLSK


Columns and labels:
[1] = target: T1, His6-FLAG-tagged mouse protrudin (mouse); experiment: affinity purification with mass spectrometry; dual affinity purification (anti-FLAG M2 agarose, FLAG peptide elution, then Ni-NTA agarose, imidazole elution) of His6-FLAG-protrudin from the membrane fraction of Neuro2A cells; SDS-PAGE, in-gel trypsin digestion, LC-MS/MS, MASCOT
[2] = target: T2, endogenous protrudin of mouse brain (mouse (endogenous in mouse brain)); experiment: affinity purification with mass spectrometry; immunoprecipitation from the membrane fraction of mouse brain with mouse monoclonal antibodies to protrudin; LC-MS/MS; peptides identified in protrudin knockout mice subtracted; two independent experiments

Molecule | binding [1] | binding [2]
VAP-B (vesicle-associated membrane protein-associated protein B), endogenous in Neuro2A cells (from UniProt Q9QY76 1-243) | binds | –
PDZD8 (PDZ domain-containing 8), endogenous in Neuro2A cells (protein, UniProt B9EJ80 1-1147) MGLLLLILASAVLGSFLTLLAQFLLLYRRQPEPRADEAARAGDGFRYLKPVPGLPLREYLYGGGAEELAACSSEAGASSTPTPDSPAPPTLETCYFLNATILFLFRELRDTALARRWVTKKIKVEFEELLQTKTAGRLLEGLSLRDVFLGDTVPFIKTIRLVRPVVASGTGEPDDPDGDALPATCPEELAFEAEVEYNGGFHLAIDVDLVFGKSAYLFVKLSRVVGRLRFVLTRVPFTHWFFSFVEDPLIDFEVRSQFEGRPMPQLTSIIVNQLKKIIKRKHTLPSYKIRFKPFFPYQALQGFEEDEELIHIQQWALTEGRLKVTLLECSRLFIFGSYDRETNVHCTLELSSGVWEEKQRSSIKTVELIKGNLQSVGLTLRLVQSTDGYAGHVIIETVAPNSPAAMADLQRGDRLIAIGGVKITSTLQVLKLIKQAGDRVLVYYQRPAGQSSQDSLGQLEESFLSSSCQAAYEEDAAGLSADTENRDLDSEFEDLASDVRVQTELKEETQPLSHSPKRTPTTLSIKPLGAISPVLNRKLISGIHPPPQKLPSKEGNKPSTLKTSETTEAAQVSKPQGPTFKPPVPPRPQGRVPLPPTDTSAQADPEAPEKPDKVLLPPPPADKPAEKQVKSVDQGEDVAAGKQSSAKQEGVKDLPSESSAPTKDSSDDPQMWESSEVLYRNKVGKWSRTRASCVFDIEACHRYLNIALWCRDPFKLGGLICLGHVSLKLEEVALGCLATSNMEYLTKFRLEPPTPKAMVTRTALRNLSMQKGFNDKFCFGDITIHFKYLKEGEPDHHIVPNVEKEKELHLVEEVSTLPKEEHFVGQMSLSENKHSFQDTQFQNPTWCDYCKKKVWTKAASQCMFCAYVCHKKCQEKCLAETPLCGATERRIDRTLKNLRLEGQDPLLGLPPRVEIEANKSVNKTTGLTRHIINTSSRLLNLRQVSKTRLSEPGTDLVEPSPKHTPNTSDNEGSDTEVCGSNSPSKRGNSAGIKLMRKEGGLDDSVFIAVKEIGRDLYRGLPTEERIQKLEFMLDKLQNEIDQELEHNNSLVREEKETNDTRKKSVLSAALAKSGERLQALTLLMIHYRAGIEDIETLENLSLDQHSKKMNKYADDTEEDLDSEISQLIDSQPFSNISDDLFGPSESV | binds | –
VAP-A (vesicle-associated membrane protein-associated protein A), endogenous in Neuro2A cells (protein, UniProt Q9WV55 1-249) MASASGAMAKHEQILVLDPPSDLKFKGPFTDVVTTNLKLQNPSDRKVCFKVKTTAPRRYCVRPNSGIIDPGSIVTVSVMLQPFDYDPNEKSKHKFMVQTIFAPPNISDMEAVWKEAKPDELMDSKLRCVFEMPNENDKLNDMEPSKAVPLNASKQDGPLPKPHSVSLNDTETRKLMEECKRLQGEMMKLSEENRHLRDEGLRLRKVAHSDKPGSTSAVSFRDNVTSPLPSLLVVIAAIFIGFFLGKFIL | binds | –
endogenous PDZD8 of mouse brain (protein, UniProt B9EJ80 1-1147) MGLLLLILASAVLGSFLTLLAQFLLLYRRQPEPRADEAARAGDGFRYLKPVPGLPLREYLYGGGAEELAACSSEAGASSTPTPDSPAPPTLETCYFLNATILFLFRELRDTALARRWVTKKIKVEFEELLQTKTAGRLLEGLSLRDVFLGDTVPFIKTIRLVRPVVASGTGEPDDPDGDALPATCPEELAFEAEVEYNGGFHLAIDVDLVFGKSAYLFVKLSRVVGRLRFVLTRVPFTHWFFSFVEDPLIDFEVRSQFEGRPMPQLTSIIVNQLKKIIKRKHTLPSYKIRFKPFFPYQALQGFEEDEELIHIQQWALTEGRLKVTLLECSRLFIFGSYDRETNVHCTLELSSGVWEEKQRSSIKTVELIKGNLQSVGLTLRLVQSTDGYAGHVIIETVAPNSPAAMADLQRGDRLIAIGGVKITSTLQVLKLIKQAGDRVLVYYQRPAGQSSQDSLGQLEESFLSSSCQAAYEEDAAGLSADTENRDLDSEFEDLASDVRVQTELKEETQPLSHSPKRTPTTLSIKPLGAISPVLNRKLISGIHPPPQKLPSKEGNKPSTLKTSETTEAAQVSKPQGPTFKPPVPPRPQGRVPLPPTDTSAQADPEAPEKPDKVLLPPPPADKPAEKQVKSVDQGEDVAAGKQSSAKQEGVKDLPSESSAPTKDSSDDPQMWESSEVLYRNKVGKWSRTRASCVFDIEACHRYLNIALWCRDPFKLGGLICLGHVSLKLEEVALGCLATSNMEYLTKFRLEPPTPKAMVTRTALRNLSMQKGFNDKFCFGDITIHFKYLKEGEPDHHIVPNVEKEKELHLVEEVSTLPKEEHFVGQMSLSENKHSFQDTQFQNPTWCDYCKKKVWTKAASQCMFCAYVCHKKCQEKCLAETPLCGATERRIDRTLKNLRLEGQDPLLGLPPRVEIEANKSVNKTTGLTRHIINTSSRLLNLRQVSKTRLSEPGTDLVEPSPKHTPNTSDNEGSDTEVCGSNSPSKRGNSAGIKLMRKEGGLDDSVFIAVKEIGRDLYRGLPTEERIQKLEFMLDKLQNEIDQELEHNNSLVREEKETNDTRKKSVLSAALAKSGERLQALTLLMIHYRAGIEDIETLENLSLDQHSKKMNKYADDTEEDLDSEISQLIDSQPFSNISDDLFGPSESV | – | binds
